Data published in paper PMC8654936.
No constants are given. Whether binding was seen depends on the method and setting. In cells and extracts the contact can be indirect. Some binding calls cover weakened binding; strength is not graded here. For some of these results: Tags and fused reporters may be left off the sequences shown.

Amino acid sequences for entries named in this document (tags omitted). A change or cut given only in a name is not applied to a line headed by its entry. Residues count along the entry.
UniProt P61769: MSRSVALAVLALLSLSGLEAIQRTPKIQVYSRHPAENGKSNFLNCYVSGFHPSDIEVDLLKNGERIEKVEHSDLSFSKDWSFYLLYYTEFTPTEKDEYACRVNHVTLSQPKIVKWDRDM
UniProt O43586: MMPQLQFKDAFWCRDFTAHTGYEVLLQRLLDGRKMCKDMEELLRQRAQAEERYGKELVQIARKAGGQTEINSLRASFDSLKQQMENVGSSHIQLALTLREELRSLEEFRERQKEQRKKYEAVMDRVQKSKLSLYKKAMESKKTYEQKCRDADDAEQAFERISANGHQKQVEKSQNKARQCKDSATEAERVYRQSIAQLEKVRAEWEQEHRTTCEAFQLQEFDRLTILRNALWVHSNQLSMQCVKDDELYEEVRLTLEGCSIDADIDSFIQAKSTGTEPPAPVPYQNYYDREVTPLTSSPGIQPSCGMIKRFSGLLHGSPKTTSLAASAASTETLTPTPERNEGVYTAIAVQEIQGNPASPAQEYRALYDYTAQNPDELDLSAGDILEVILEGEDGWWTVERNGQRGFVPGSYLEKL
UniProt P29466, residues 120-297: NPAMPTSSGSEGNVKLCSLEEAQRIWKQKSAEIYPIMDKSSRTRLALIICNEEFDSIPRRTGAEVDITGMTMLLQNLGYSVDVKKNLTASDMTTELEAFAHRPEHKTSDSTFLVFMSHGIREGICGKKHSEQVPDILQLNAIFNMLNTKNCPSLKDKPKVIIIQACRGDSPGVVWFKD

Assays:
[1] = molecular target: T1, FLAG-tagged full-length pyrin (human) (UniProt O15553); test: co-IP; Lenti-X 293T cells expressing FLAG-pyrin and V5-ASC with V5-tagged wild-type or A230T PSTPIP1, no β2MG overexpression; anti-FLAG Ab agarose beads
T1 sequence: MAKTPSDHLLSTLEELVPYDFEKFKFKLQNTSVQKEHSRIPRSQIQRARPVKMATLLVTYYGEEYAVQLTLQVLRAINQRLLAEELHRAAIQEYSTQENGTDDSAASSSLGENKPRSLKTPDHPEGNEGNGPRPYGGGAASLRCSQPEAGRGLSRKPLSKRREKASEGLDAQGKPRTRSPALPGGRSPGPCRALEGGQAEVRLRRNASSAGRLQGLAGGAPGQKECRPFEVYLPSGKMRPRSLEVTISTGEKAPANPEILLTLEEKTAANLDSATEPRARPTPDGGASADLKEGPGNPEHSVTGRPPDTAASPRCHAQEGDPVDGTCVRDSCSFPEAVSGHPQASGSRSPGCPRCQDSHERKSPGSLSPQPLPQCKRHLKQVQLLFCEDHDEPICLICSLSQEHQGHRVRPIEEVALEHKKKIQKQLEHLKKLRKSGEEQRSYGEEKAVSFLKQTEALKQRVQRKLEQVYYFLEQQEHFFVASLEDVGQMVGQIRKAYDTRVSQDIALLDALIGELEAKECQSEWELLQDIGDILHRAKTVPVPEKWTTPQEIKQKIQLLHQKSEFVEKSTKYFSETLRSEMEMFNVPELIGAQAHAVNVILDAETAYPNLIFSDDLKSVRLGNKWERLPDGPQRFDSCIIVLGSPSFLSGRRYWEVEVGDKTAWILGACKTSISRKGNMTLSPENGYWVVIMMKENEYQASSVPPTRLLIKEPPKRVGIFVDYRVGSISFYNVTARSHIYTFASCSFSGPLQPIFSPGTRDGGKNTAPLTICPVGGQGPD

[2] = molecular target: T1, FLAG-tagged full-length pyrin (human); test: co-IP; competition in cells: Lenti-X 293T cells expressing FLAG-pyrin (wild type or M694V) and V5-β2MG with or without V5-p20; anti-FLAG Ab agarose
[3] = molecular target: T2, FLAG-tagged pyrin E10-2 (aa 660–727) (human) (UniProt O15553); test: co-IP; Lenti-X 293T cells co-transfected; lysis buffer 20 mM Tris–HCl pH 6.0, 120 mM NaCl, 5% glycerol, 0.5% Triton X-100; anti-FLAG Ab agarose beads, 1 h at 4 °C; blot for V5; some samples with or without co-expressed V5-β2MG
T2 sequence: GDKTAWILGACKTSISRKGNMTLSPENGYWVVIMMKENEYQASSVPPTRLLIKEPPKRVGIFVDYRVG

[4] = molecular target: T1, FLAG-tagged full-length pyrin (human); test: as above
[5] = molecular target: T3, FLAG-tagged full-length pyrin with M694V mutation (human) (UniProt O15553); test: as above
T3 sequence: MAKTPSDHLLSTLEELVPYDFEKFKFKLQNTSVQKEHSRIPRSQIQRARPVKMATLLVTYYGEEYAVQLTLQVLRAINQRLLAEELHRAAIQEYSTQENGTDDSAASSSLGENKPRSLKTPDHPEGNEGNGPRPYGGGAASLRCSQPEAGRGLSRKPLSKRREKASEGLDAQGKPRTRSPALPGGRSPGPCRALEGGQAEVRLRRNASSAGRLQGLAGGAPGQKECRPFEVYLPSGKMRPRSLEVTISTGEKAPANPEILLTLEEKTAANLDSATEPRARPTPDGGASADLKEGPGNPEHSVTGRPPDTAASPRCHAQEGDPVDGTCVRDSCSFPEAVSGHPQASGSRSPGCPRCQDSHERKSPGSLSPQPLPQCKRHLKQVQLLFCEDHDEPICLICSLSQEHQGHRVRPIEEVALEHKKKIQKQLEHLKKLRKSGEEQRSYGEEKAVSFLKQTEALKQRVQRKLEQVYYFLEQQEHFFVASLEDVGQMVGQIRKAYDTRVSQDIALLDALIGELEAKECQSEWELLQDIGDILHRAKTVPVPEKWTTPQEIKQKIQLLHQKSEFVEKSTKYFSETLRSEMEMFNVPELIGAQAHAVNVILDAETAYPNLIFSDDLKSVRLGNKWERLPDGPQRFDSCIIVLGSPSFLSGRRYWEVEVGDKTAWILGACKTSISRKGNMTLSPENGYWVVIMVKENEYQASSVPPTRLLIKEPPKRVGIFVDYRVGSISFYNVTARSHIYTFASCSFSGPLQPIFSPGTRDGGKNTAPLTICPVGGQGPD

[6] = molecular target: T3, FLAG-tagged full-length pyrin with M694V mutation (human); test: co-IP; competition in cells: Lenti-X 293T cells expressing FLAG-pyrin (wild type or M694V) and V5-β2MG with or without V5-p20; anti-FLAG Ab agarose
[7] = molecular target: T1, FLAG-tagged full-length pyrin (human); test: co-IP; Lenti-X 293T cells; hypotonic lysis buffer (20 mM Tris–HCl pH 6.0, 10 mM KCl, 1.5 mM MgCl2, 5% glycerol), cytoplasmic proteins only, NaCl added to 120 mM; FLAG-pyrin constructs precipitated
[8] = molecular target: T4, FLAG-tagged pyrin E10-1 (aa 598–659) (human) (UniProt O15553); test: co-IP; Lenti-X 293T cells co-transfected; lysis buffer 20 mM Tris–HCl pH 6.0, 120 mM NaCl, 5% glycerol, 0.5% Triton X-100; anti-FLAG Ab agarose beads, 1 h at 4 °C; blot for V5; some samples with or without co-expressed V5-β2MG
T4 sequence: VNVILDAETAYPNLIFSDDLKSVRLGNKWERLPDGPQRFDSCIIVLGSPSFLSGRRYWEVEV

[9] = molecular target: T5, FLAG-tagged pyrin E10-2 fragment with M694V mutation (human) (UniProt O15553); test: as above
T5 sequence: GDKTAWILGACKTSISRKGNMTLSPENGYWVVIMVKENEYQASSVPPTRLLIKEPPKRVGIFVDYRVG

[10] = molecular target: T6, FLAG-tagged pyrin E10-3 (aa 728–781) (human) (UniProt O15553); test: as above
T6 sequence: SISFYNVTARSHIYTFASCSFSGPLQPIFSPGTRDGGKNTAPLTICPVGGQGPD

[11] = molecular target: T7, endogenous pyrin in human neutrophils (human (endogenous in neutrophils)) (UniProt O15553); test: proximity ligation; Duolink kit; human neutrophils stimulated with LPS and MSU crystals; anti-pyrin mouse monoclonal Ab with PLUS probe, anti-β2MG mouse monoclonal Ab with MINUS probe
T7 sequence: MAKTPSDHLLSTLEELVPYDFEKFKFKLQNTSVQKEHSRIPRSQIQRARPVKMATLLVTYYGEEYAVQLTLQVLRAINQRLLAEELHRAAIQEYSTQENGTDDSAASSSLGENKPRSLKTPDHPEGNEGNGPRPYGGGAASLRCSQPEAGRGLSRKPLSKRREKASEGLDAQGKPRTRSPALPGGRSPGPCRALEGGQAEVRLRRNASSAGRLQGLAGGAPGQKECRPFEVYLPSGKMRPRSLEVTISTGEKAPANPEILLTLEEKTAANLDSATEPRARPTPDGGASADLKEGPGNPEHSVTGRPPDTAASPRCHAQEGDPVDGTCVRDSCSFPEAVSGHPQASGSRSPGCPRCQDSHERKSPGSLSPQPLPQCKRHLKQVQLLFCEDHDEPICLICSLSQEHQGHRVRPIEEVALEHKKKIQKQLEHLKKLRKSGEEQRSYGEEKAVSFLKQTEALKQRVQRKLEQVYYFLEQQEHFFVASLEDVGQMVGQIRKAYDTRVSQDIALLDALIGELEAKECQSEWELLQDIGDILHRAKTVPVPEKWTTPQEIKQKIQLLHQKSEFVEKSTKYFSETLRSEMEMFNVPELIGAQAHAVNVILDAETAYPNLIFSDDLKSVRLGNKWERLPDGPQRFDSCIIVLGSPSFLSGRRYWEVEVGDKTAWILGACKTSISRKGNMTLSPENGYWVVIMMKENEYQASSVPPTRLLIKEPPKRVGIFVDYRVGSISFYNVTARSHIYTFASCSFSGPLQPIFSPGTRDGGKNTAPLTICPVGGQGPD

[12] = molecular target: V5-tagged β2-microglobulin (human) (UniProt P61769); test: co-IP; reciprocal: Lenti-X 293T cells co-transfected; same lysis buffer; anti-V5 Ab magnet beads, 1 h at 4 °C; blot for FLAG

In the case of “V5-tagged PSTPIP1 A230T (from UniProt O43586 1-416)”, the binding [1] is reported as “binds”.

For “V5-tagged caspase-1 p20 subunit (from UniProt P29466 120-297) (domain or fragment)”, the binding [2] was “binds” and the binding [3] was “binds”.

For “V5-tagged wild-type proline–serine–threonine phosphatase interacting protein 1 (PSTPIP1) (from UniProt O43586 1-416)”, the binding [4] was “binds” and the binding [5] was “binds”.

“V5-tagged β2-microglobulin (from UniProt P61769 21-119)” was tested, and the binding [2] was “binds”, the binding [6] was “binds” and the binding [7] was “binds”. The binding [4] was “binds”, the binding [5] was “binds” and the binding [8] was “binds”. For the same molecule, the binding [3] was “binds”, the binding [9] was “binds” and the binding [10] was “binds”.

“endogenous β2-microglobulin in human neutrophils (from UniProt P61769 21-119)” was tested, and the binding [11] was “binds”.

B1: FLAG-tagged full-length pyrin (protein, UniProt O15553 1-781)
chain: MAKTPSDHLLSTLEELVPYDFEKFKFKLQNTSVQKEHSRIPRSQIQRARPVKMATLLVTYYGEEYAVQLTLQVLRAINQRLLAEELHRAAIQEYSTQENGTDDSAASSSLGENKPRSLKTPDHPEGNEGNGPRPYGGGAASLRCSQPEAGRGLSRKPLSKRREKASEGLDAQGKPRTRSPALPGGRSPGPCRALEGGQAEVRLRRNASSAGRLQGLAGGAPGQKECRPFEVYLPSGKMRPRSLEVTISTGEKAPANPEILLTLEEKTAANLDSATEPRARPTPDGGASADLKEGPGNPEHSVTGRPPDTAASPRCHAQEGDPVDGTCVRDSCSFPEAVSGHPQASGSRSPGCPRCQDSHERKSPGSLSPQPLPQCKRHLKQVQLLFCEDHDEPICLICSLSQEHQGHRVRPIEEVALEHKKKIQKQLEHLKKLRKSGEEQRSYGEEKAVSFLKQTEALKQRVQRKLEQVYYFLEQQEHFFVASLEDVGQMVGQIRKAYDTRVSQDIALLDALIGELEAKECQSEWELLQDIGDILHRAKTVPVPEKWTTPQEIKQKIQLLHQKSEFVEKSTKYFSETLRSEMEMFNVPELIGAQAHAVNVILDAETAYPNLIFSDDLKSVRLGNKWERLPDGPQRFDSCIIVLGSPSFLSGRRYWEVEVGDKTAWILGACKTSISRKGNMTLSPENGYWVVIMMKENEYQASSVPPTRLLIKEPPKRVGIFVDYRVGSISFYNVTARSHIYTFASCSFSGPLQPIFSPGTRDGGKNTAPLTICPVGGQGPD
With B1 the binding [12] was “binds”.
